Measurements reported in patent US5541174A, “Analgesic method” (priority 1995, dated 1996).

What was measured:
[1] = system: acetic acid-induced writhing mouse pain model; experiment: Comparison/potentiation of analgesic activity with morphine in the acetic acid-induced writhing mouse pain model; type: in vivo
Method: (§1) Groups of 10 ICR male mice (Taisho Pharmaceutical Co. Research Center) were used to study each dose of every compound. Ligands or complexes were administered orally or subcutaneously in 0.1 ml of vehicle per 10 g of body weight 30 minutes before the intrapertioneal injection of 0.1 ml of 0.7% acetic acid solution per 10 g of body weight. Number of writhes were counted for each mouse during a period of 10 to 20 min after acetic acid injection. Inhibitory percent was calculated by comparison with the number of writhes in the non-treated control, vehicle-treated, and acetic acid-injected group. The ED50 value and 95% confidence limits were calculated from the inhibitory percent by the method of Litchfield and Wilcoxon.

[2] = system: acetic acid induced writhing in mice; experiment: Acetic acid-induced writhing test; type: in vivo, ICR male mice
Method: 1. Acetic acid-induced writhing test as described in Koster et al., "Acetic Acid for Analgesic Screening", Fed. Proc. 18, 412 (1959), incorporated by reference herein; and
as §1

CN1CC[C@]23c4c5ccc(O)c4O[C@H]2[C@@H](O)C=C[C@H]3[C@H]1C5 [morphine, reference compound]
% Inhibition ([1]; morphine 1.0 umol/kg + Cu(II)2 (indomethacin)4 0.5 umol/kg): 50% | ED50 ([1]; morphine + Cu(II)2 (indomethacin)4 0.5 umol/kg): 1.0 µmol/kg | % Inhibition ([1]; morphine alone 1.0 umol/kg, dose footnote: orally): 35% | ED50 ([1]; morphine alone, dose footnote: orally): 1.6 µmol/kg | ED50 ([2]; Mus musculus, sc, read-out: ED50 (W)): 2 µmol/kg | ED50 (W) ([2]; s.c., hydrochloride salt in saline): 0.002 mmol/kg | % Inhibition ([2]; s.c., hydrochloride salt in saline, 0.001 mmol/kg): 35%
